No constants are given. Whether binding was seen depends on the method and setting. Some binding calls cover weakened binding; strength is not graded here. Tags and fused reporters may be left off the sequences shown.
What was measured:
[1] = biological target: S-TNF, human TNFα fusion protein with an N-terminal S-Tag (human) (UniProt P01375); experiment: indirect ELISA: sp55 from conditioned medium captured on Ni-NTA wells, S-TNF at 1 ug/mL, detection with S-protein HRP and TMB, OD 370 nm
[2] = biological target: S-TNF, human TNFα fusion protein with an N-terminal S-Tag (human) (UniProt P01375); experiment: indirect ELISA: sp55 captured on Ni-NTA wells, S-TNF detected with S-protein-HRP
[3] = biological target: S-TNF, human TNFα fusion protein with an N-terminal S-Tag (human) (UniProt P01375); experiment: legend of FIG. 11 (indirect ELISA with S-TNF)

Sequences of proteins named here, by UniProt entry; tags and fusion partners are left off. Residues count along the entry.
UniProt P01375, residues 77-233: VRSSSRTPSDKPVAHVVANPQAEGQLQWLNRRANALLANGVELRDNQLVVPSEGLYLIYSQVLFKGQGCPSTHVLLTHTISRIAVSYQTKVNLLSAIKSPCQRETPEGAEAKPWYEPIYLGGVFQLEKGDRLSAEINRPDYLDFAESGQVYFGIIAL

Measured: binding

B1: sp55, full-length ecto-domain of human TNFR-1 (residues 30-211) with C-terminal myc and His6 tags, expressed from pSecTag2A (receptor)
chain: DAAQPARRAVRSLVPHLGDREKRDSVCPQGKYIHPQNNSICCTKCHKGTYLYNDCPGPGQDTDCRECESGSFTASENHLRHCLSCSKCRKEMGQVEISSCTVDRDTVCGCRKNQYRHYWSENLFQCFNCSLCLNGTVHLSCQEKQNTVCTCHAGFFLRENECVSCSNCKKSLECTKLCLPQIENVKGTEDSGTTRGGPEQKLISEEDLNSAVDHHHHHH
binds: all assays above
